{"source": "patent US12454675B2", "about": "“Method of increasing protein yield in mammalian cells in serum-free culture medium” (AGENCY FOR SCIENCE, TECHNOLOGY AND RESEARCH, priority 2016, dated 2025)", "tested_on": "SH87 cells", "assay": "Quantification of intracellular maltose by LC-MS", "assay_type": "cell-based, Chinese Hamster"}
{"molecule": "OC[C@H]1O[C@H](O[C@H]2[C@H](O)[C@@H](O)[C@H](O)O[C@@H]2CO)[C@H](O)[C@@H](O)[C@@H]1O", "note": "[maltose]", "values": [{"measurement": "intracellular maltose concentration, times lower than that in the culture medium", "setting": "SH87, 4 g/l glucose + 3 g/l maltose, over 5 days", "value": "approximately 100 times"}, {"measurement": "intracellular maltose detection", "setting": "SH87, 1 day after seeding into maltose-supplemented medium", "value": "detected"}]}
